Measured values taken from US20210009657A1 (THEACHON, published 2021).
These are yes or no findings as the source states them, for the method shown. Some results given as binding are weak or reduced against the parent protein; the word gives no strength.

Amino acid sequences for entries named in this document (tags omitted). A change or cut given only in a name is not applied to a line headed by its entry.
UniProt P09038: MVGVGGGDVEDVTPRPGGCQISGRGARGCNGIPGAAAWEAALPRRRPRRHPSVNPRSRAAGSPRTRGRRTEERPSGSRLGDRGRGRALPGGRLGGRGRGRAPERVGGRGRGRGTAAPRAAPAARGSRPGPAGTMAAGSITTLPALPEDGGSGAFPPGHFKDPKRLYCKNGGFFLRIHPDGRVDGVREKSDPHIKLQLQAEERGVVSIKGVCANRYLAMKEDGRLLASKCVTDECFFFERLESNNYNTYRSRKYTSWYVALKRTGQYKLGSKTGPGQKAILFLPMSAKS
UniProt P22607: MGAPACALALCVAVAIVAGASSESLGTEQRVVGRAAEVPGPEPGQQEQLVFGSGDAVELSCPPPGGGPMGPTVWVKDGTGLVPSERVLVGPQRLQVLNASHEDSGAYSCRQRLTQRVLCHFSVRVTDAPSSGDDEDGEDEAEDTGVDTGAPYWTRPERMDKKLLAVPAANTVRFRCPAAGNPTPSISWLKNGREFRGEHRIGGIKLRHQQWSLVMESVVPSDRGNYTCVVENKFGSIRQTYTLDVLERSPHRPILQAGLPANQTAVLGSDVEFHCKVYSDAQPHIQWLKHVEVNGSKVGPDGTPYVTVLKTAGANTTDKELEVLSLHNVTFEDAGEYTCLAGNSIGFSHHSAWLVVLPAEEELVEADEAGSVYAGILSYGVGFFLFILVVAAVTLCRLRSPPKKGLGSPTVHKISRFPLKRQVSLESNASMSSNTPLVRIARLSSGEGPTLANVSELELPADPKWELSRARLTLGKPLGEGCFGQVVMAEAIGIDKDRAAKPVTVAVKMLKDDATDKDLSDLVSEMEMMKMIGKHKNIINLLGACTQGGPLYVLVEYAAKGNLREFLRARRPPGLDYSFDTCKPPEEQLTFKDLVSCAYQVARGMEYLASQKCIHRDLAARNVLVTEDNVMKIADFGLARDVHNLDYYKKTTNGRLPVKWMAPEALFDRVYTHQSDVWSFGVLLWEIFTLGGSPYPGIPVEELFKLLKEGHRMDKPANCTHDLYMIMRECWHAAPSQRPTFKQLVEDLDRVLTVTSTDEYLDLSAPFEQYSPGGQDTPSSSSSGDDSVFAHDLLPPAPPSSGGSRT

B1: FLAG-sFGFR3_Del4 (receptor)
chain: DYKDDDDKMGAPACALALCVAVAIVAGASSESLGTEQRVVGRAAEVPGPEPGQQEQLVFGSGDAVELSCPPPGGGPMGPTVWVKDGTGLVPSERVLVGPQRLQVLNASHEDSGAYSCRQRLTQRVLCHFSVRVTDAPSSGDDEDGEDEAEDTGVDTGAPYWTRPERMDKKLLAVPAANTVRFRCPAAGNPTPSISWLKNGREFRGEHRIGGIKLRHQQWSLVMESVVPSDRGNYTCVVENKFGSIRQTYTLDVLERSPHRPILQAGLPANQTAVLGSDVEFHCKVYSDAQPHIQWLKHVEVNGSKVGPDGTPYVTVLKVSLESNASMSSNT
notes: Obtained by site directed mutagenesis of sFGFR3-pFLAG-CMV3 and made in HEK 293 cells; also called Del4 variant

Experiments:
[1] = molecular target: T1, human FGF2 (human, UniProt P09038 143-288); test: FGF2 depletion assay, unbound FGF2 by ELISA
T1 construct: also called hFGF2; Fibroblast Growth Factor 2

[2] = molecular target: T1, human FGF2; test: fixed human FGF2 (1000 pg/ml) incubated with 0 to 250 ng/ml decoy, unbound FGF2 by ELISA
[3] = molecular target: T1, human FGF2; test: fixed human FGF2 incubated with increasing decoy, unbound FGF2 by ELISA

Molecule	binding [1]	binding [2]	binding [3]
FLAG-sFGFR3_Del2 (from UniProt P22607 1-660) (receptor)	binds	binds	
FLAG-sFGFR3 (from UniProt P22607 23-806) (receptor)		binds	binds
FLAG-sFGFR3_Del1 (from UniProt P22607 1-806) (receptor)	binds	binds	
FLAG-sFGFR3_Del3 (from UniProt P22607 1-552) (receptor)	binds	binds	
B1	binds	binds	
